One may read the AC50 as the concentration at which the activity in the assay is half-maximal.

Some of the results follow. Shown are side measurements of this screen, not its main read-out; they come without a call. Compounds called inactive in the main read-out are mostly missing here. Potencies come from curve fits of mixed quality, noted in brackets.

The source of these data is PubChem BioAssay AID493014 (National Center for Advancing Translational Sciences (NCATS), 2011).

The nature of this experiment: qHTS Assay to Find Inhibitors of Chronic Active B-Cell Receptor Signaling. To be noted: ABC-DLBCL IkBa-CBG/CBR reporter, luminescence ratio (green luciferase fused to IkBa over red control in TMD8 lymphoma cells), 4 h. The method in brief:
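Doxycycline induced both beetle luciferases in TMD8 lymphoma cells; IKK-driven degradation limits the IkappaBalpha-fused green signal, while red luminescence normalises for cell number and nonspecific effects. Compounds tested up to 46 uM, 4 hrs.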

The mark [1] stands for this setting: measured here: CBR red luminescence, cell number.
Where [2] appears, read: measured here: IkBa-CBG green luminescence.

Regarding `COc1ccc(C(=O)Nc2ccc(S(=O)(=O)Nc3nccc(C)n3)cc2)cc1OC`, under setting [1], the AC50 is 0.00411 µM [falling, full curve, poor fit].
In the case of `CC1CC(C)(C)CC2(C1)NC(=O)N(CC(=O)N1CCN(Cc3ccc(C#N)cc3)CC1)C2=O` (stereo not drawn), the AC50 under setting [1] was 5.8 µM [falling, single point].
Consider `O=C(COC(=O)c1ccccc1F)c1ccc(-n2nncc2-c2ccco2)cc1`, for which the AC50 under setting [1] is 12.6 µM [rising, single point].
Still for that read-out and setting: then `CCCc1cc(-c2n[nH]c(=S)n2CC(C)C)cs1`, with 0.326 µM [rising, full curve, poor fit]; and `CC(C)(C)c1ccc(Oc2ccc(NC(=O)c3ccco3)cn2)cc1`, with 3.16 µM [rising, single point]; and `CCCC1=[N+](CC(=O)c2ccc(Br)cc2)CCn2cccc21`, with 20 µM [rising, partial curve, poor fit].
On the same count and under the same terms, then `c1ccc(CSc2ccc(-c3cccs3)nn2)cc1`, with 0.82 µM [rising, full curve, poor fit]; and `Cc1cccc(C)c1OCC(=O)Nc1cccc(C(=O)O)c1`, with 35.5 µM [falling, single point]; and `COc1cc(SC)ccc1C(=O)Nc1nccs1`, with 11.2 µM [falling, partial curve, poor fit].
Take `Cc1ccc(-c2nnc(SCCC(=O)N3CCOCC3)o2)cc1`: the AC50 under setting [1] was 10 µM [falling, partial curve].
Same read-out and setting: then `O=C(CCc1ccccc1)Nc1ccc2c(c1)C(=O)OC2`, with 3.98 µM [rising, partial curve, poor fit]; and `Fc1ccc(F)c(NC(=S)NCCc2ccccc2)c1`, with 15.8 µM [falling, single point]; and `COc1ccc(CCNC(=O)c2cnn3c(C(F)F)cc(C)nc23)cc1OC`, with 6.51 µM [rising, full curve, poor fit].
On to `Cc1ccc2nc(NC(=O)c3ccc(NS(=O)(=O)c4cccs4)cc3)sc2c1`, for which the AC50 reads like this: under setting [1], 5.8 µM [falling, partial curve]; under setting [2], 20.6 µM [rising, single point].
With `CS(=O)(=O)NCCSCc1ccc(Cl)cc1`, the half-maximal activity concentration (AC50) by setting is: under setting [1], 35.5 µM [falling, single point]; under setting [2], 25.1 µM [rising, partial curve, poor fit].
On to `COc1ccc2cc(S(=O)(=O)N3CCOCC3)ccc2c1`, for which the AC50 under setting [1] was 25.9 µM [rising, single point].
For the compound `COc1ccc(-n2ncc(N(C)n3cccc3)c(Cl)c2=O)cc1`, the AC50 under setting [1] is 20 µM [rising, single point].
Same read-out and setting: then `O=C(O)c1c(Cl)nc2ccccn12`, with 2.82 µM [rising, full curve, poor fit]; and `CC(C)OC(=O)CSc1nnc2c(n1)[nH]c1ccc(F)cc12`, with 35.5 µM [falling, single point]; and `COc1ccc(CCNC(=O)CSc2nc(-c3ccco3)cc(C(F)(F)F)n2)cc1OC`, with 0.517 µM [falling, partial curve, poor fit].
In the case of `O=S(=O)(c1cccc(S(=O)(=O)N2CCOCC2)c1)N1CCCCC1`, the AC50 under setting [1] was 29.1 µM [falling, single point].
Regarding `CCN1C(=NCCCCO)N[C@@H](c2cccc(C(F)(F)F)c2)C(C(=O)OC)=C1C`, the AC50 under setting [1] is 10 µM [falling, partial curve].
Regarding `Cn1c(NC(=O)c2ccc(Cl)s2)cc(=O)n(C)c1=O`, the AC50 under setting [2] is 29.1 µM [rising, partial curve, poor fit].
Turning to `COc1cccc(CN(Cc2ccccc2F)S(=O)(=O)c2ccc(S(=O)(=O)NCc3ccccc3)cc2)c1`, under setting [1], the half-maximal activity concentration (AC50) was 16.4 µM [rising, single point].
Regarding `CCCCNc1nc2ccccc2n1CC(=O)Nc1ccc2c(c1)OCCO2`, the AC50 under setting [1] is 2.82 µM [rising, partial curve, poor fit].
Regarding `CC1=C(C(=O)OCc2ccccc2)C(c2cccc([N+](=O)[O-])c2)NC(=O)N1C` (stereo not drawn), under setting [1], the AC50 was 35.5 µM [falling, single point].
Consider `CC(C)(C)c1[nH]nc2c1C(c1ccc(OC(=O)c3ccco3)cc1)C(C#N)=C(N)O2` (stereo not drawn), for which the half-maximal activity concentration (AC50) under setting [1] is 0.398 µM [falling, full curve].
Turning to `CCOC(=O)/C(C(=O)Nc1ccc(Br)cc1)=C1/NC(C)(C)Cc2ccccc21`, the AC50 under setting [1] was 11.6 µM [rising, partial curve, poor fit].
In the case of `CC(C)(CNC(=O)CO/N=C1/C=C2CCC3C(C(O)C[C@@]4(C)C3CC[C@]4(O)C(=O)CO)[C@@]2(C)CC1)C(O)C(=O)O` (stereo partly drawn), the AC50 was 7.08 µM [rising, full curve, poor fit] under setting [1] and 5.62 µM [falling, full curve] under setting [2].
As for `CCCC(=O)Nc1ncnc2c1ncn2[C@@H]1O[C@@H]2COP(=O)(O)O[C@H]2[C@H]1OC(=O)CCC`, the AC50 is 20 µM [rising, partial curve, poor fit] under setting [1] and 23.1 µM [falling, partial curve, poor fit] under setting [2].
`Nc1ccc(C(=O)N2CCN(S(=O)(=O)/C=C/c3ccccc3)CC2)cc1[N+](=O)[O-]`: the AC50 under setting [1] is 1.3 µM [falling, partial curve, poor fit].
For `CCn1c(O)c(/C=C2\C=Nc3ccccc32)sc1=Nc1ccccc1`, under setting [1], the AC50 is 0.316 µM [rising, full curve, poor fit].
`O=C(COc1ccc(Cl)cc1)N1CCN(S(=O)(=O)c2ccccc2)CC1`: the AC50 under setting [1] is 6.51 µM [rising, single point].
For the compound `C[C@@]12C(=O)Nc3ccc(Br)cc3C(=O)N1[C@H]1c3cc(Cl)ccc3OC[C@@H]1[C@@H]2c1ccccc1`, the AC50 reads like this: under setting [1], 2.59 µM [falling, full curve]; under setting [2], 3.26 µM [rising, full curve, poor fit].
On to `OCCNc1nc(-c2ccccc2)nc2c1oc1ccccc12`, for which the AC50 under setting [1] is 7.08 µM [falling, full curve, poor fit].
Same read-out and setting: next, `Cc1sc2nc3n(c(=O)c2c1C)CCCCC3`: 5.8 µM [rising, full curve, poor fit].
Same read-out and setting: then `CN1C(=O)c2cccc(NC(=O)CCc3ccccc3)c2C1=O`, with 32.6 µM [falling, single point].
For `CC(=O)Nc1ccc(NC(=O)c2sc(-c3ccccc3)nc2C)cc1`, the AC50 under setting [1] was 14.1 µM [falling, single point] and the AC50 under setting [2] was 3.16 µM [rising, full curve, poor fit].
With `Clc1ccc(-c2cc(-c3nnc4n3CCCCC4)c3ccccc3n2)cc1`, the AC50 under setting [1] was 14.6 µM [rising, partial curve, poor fit].
On to `C#CCOc1c(Cl)cc(/C=N/NC(N)=S)cc1OCC`, for which the AC50 under setting [1] is 10.3 µM [rising, partial curve, poor fit].
Consider `N#Cc1c(N)nc2c(c1N)CC(=O)N2c1ccccc1-c1ccccc1`, for which the AC50 under setting [2] is 14.1 µM [falling, partial curve, poor fit].
`Cc1ccccc1OCC(=O)N/N=C/c1cc2ccccc2nc1Cl`: under setting [1], the AC50 is 0.891 µM [rising, full curve, poor fit].
Still for that read-out and setting: then `Nc1ccc(C(=O)N/N=C/c2ccc(N3CCOCC3)s2)cc1`, with 16.4 µM [falling, partial curve]; and `O=C(NCCc1c[nH]c2ccccc12)C(=O)c1c[nH]c2ccccc12`, with 6.31 µM [falling, partial curve]; and `O=C(c1cccc2ccccc12)C1CCCN(C(=O)C2CCOCC2)C1` (stereo not drawn), with 14.1 µM [rising, partial curve, poor fit].
Turning to `Cc1nnc(N/N=C/c2c[nH]c3ccccc23)[nH]c1=O`, the AC50 under setting [1] is 35.5 µM [falling, partial curve, poor fit].
On to `CCCCCC(=O)NNC(=S)NC(=O)c1cccc([N+](=O)[O-])c1`, for which the AC50 under setting [1] is 29.1 µM [rising, single point].
On to `COc1ccccc1C(=O)Nc1ccccc1N1CCN(S(C)(=O)=O)CC1`, for which the AC50 under setting [1] is 18.4 µM [falling, partial curve].
Take `O=C(NCc1ccc(F)cc1)c1cccc2c1C(=O)N(Cc1cccnc1)C2`: under setting [1], the AC50 was 15.8 µM [falling, single point].
The same measure, in the same setting: then `FC(F)(F)c1ccc(Sc2n[nH]c(C(F)(F)F)n2)nc1`, with 15.8 µM [rising, single point]; and `Cn1ccnc1SCc1cc(=O)[nH]c2ccccc12`, with 3.66 µM [rising, partial curve]; and `O=C(Nc1ccc2c(c1)OCO2)c1noc2c1CCCCC2`, with 10 µM [falling, partial curve].
Take `CSc1ccccc1NC(=O)c1cccs1`: under setting [1], the AC50 is 35.5 µM [rising, single point].
Same read-out and setting: then `O=C(CSc1ccc2ccccc2n1)c1ccccc1`, with 12.6 µM [falling, single point].
Consider `O=C(CN1C(=O)NC(Cc2ccccc2)C1=O)Nc1ccccc1` (stereo not drawn), for which the half-maximal activity concentration (AC50) under setting [1] is 29.1 µM [falling, single point].
The same measure, in the same setting: then `CCOc1ccc(Br)cc1C(=O)N/N=C/c1ccccn1`, with 35.5 µM [falling, single point].
For `O=S(=O)(NCC1CN(S(=O)(=O)c2ccc3c(c2)OCCO3)C1)c1c(F)cccc1F`, under setting [1], the AC50 is 7.31 µM [rising, partial curve, poor fit].
Still for that read-out and setting: next, `COc1cc(/C=C2\C(=O)N(C)C(=S)N2C)ccc1O`: 1.16 µM [falling, single point].
The same measure, in the same setting: then `O=C(CSc1ccccc1)NCCc1ccccc1`, with 12.6 µM [falling, single point].
Same read-out and setting: next, `Cc1ccc2oc(C(=O)N3CCCCCC3)c(C)c2c1`: 8.91 µM [rising, partial curve, poor fit].
On to `O=C(C1Cc2ccccc2CN1C(=O)c1ccco1)N1CCN(c2ccccc2)CC1` (stereo not drawn), for which, under setting [1], the AC50 is 20.6 µM [falling, single point].
Take `Cc1csc(NC(=O)CCc2ccc(S(=O)(=O)N3CCOCC3)cc2)n1`: under setting [1], the AC50 is 23.1 µM [falling, single point].
